Measured values from PMC4031514.
Results are given in words; binding and its absence hold for the method and conditions named. In cells and extracts the contact can be indirect. Some binding calls cover weakened binding; strength is not graded here. For some assays here: Tags and fused reporters may be left off the sequences shown.

Sequences of proteins named here, by UniProt entry; tags and fusion partners are left off. Residues count along the entry.
UniProt Q8IXI2: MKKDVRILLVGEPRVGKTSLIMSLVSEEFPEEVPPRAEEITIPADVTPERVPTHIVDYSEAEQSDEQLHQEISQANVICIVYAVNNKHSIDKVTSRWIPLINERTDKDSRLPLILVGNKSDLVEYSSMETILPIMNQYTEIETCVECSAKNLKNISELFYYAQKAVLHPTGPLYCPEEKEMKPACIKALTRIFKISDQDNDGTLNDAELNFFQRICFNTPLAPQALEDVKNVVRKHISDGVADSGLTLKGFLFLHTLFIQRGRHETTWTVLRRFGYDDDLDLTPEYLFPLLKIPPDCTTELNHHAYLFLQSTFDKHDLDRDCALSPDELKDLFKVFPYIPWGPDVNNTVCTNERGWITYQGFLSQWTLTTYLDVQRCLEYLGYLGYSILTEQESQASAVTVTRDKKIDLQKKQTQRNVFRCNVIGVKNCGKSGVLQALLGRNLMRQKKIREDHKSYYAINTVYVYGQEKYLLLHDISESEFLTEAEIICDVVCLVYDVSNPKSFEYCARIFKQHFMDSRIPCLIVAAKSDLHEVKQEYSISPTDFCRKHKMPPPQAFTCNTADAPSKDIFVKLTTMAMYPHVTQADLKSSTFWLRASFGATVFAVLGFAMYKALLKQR
UniProt Q9BXM7, residues 78-581: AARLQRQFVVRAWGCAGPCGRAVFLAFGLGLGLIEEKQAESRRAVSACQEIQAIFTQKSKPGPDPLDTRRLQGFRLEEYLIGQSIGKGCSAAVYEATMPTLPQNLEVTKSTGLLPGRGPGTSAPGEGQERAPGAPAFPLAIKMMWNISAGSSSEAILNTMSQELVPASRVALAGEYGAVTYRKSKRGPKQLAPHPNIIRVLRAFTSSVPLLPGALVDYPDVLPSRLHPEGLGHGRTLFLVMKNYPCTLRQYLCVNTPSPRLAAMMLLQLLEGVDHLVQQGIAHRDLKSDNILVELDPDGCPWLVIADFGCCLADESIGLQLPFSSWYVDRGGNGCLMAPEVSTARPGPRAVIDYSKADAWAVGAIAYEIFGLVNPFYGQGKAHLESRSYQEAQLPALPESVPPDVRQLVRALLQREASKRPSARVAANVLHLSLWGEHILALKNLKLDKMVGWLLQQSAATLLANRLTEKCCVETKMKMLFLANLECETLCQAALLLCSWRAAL

How the values were obtained:
[1] = target: GFP-tagged Miro1 (UniProt Q8IXI2); assay: co-IP; GFP-TRAP beads capture GFP-Miro1 from lysates of SH-SY5Y cells stably overexpressing FLAG-Parkin and transfected with GFP-Miro1 and PINK1-myc; cells untreated or treated with 10 uM FCCP, 1 h; lysis in 50 mM Tris pH 7.4, 150 mM NaCl, 1 mM EDTA, 0.5% Triton X-100; western blot
[2] = target: T1, GFP-TRAK1 (mouse) (UniProt Q6PD31); assay: co-IP; coimmunopurification of mycMiro1 and GFP-TRAK1 from transfected cells, untreated or treated with 10 uM FCCP, 1 h; GFP-TRAP beads per the methods; lysis in 50 mM Tris pH 7.4, 150 mM NaCl, 1 mM EDTA, 0.5% Triton X-100; western blot, densitometry
T1 sequence: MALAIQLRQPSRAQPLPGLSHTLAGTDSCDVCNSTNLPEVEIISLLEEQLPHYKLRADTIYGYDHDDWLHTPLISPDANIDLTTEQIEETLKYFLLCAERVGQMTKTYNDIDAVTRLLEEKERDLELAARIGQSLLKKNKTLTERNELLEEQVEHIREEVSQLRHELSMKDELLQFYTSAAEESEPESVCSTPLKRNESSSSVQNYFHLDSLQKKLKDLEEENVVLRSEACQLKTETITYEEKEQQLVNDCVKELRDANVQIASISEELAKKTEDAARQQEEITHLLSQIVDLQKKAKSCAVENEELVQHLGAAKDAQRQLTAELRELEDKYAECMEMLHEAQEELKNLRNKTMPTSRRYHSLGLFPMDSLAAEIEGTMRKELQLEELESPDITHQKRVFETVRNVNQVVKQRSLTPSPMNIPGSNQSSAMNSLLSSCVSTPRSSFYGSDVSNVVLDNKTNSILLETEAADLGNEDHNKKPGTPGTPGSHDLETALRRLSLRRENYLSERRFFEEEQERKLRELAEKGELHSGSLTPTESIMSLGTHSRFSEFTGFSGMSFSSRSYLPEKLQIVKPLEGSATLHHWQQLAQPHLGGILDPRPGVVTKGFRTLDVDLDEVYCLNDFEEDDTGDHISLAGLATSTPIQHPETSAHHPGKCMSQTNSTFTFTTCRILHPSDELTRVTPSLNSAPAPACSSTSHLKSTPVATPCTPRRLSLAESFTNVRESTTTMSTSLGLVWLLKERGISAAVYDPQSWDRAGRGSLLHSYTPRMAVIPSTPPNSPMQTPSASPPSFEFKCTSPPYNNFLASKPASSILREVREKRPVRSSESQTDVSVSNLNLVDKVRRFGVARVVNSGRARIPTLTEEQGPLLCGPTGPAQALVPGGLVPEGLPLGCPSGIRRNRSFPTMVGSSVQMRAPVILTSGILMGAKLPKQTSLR

Substance	binding [1]	binding [2]
Myc-tagged PINK1 (from UniProt Q9BXM7 78-581)	binds	–
Myc-tagged Miro1 (from UniProt Q8IXI2 1-618)	–	binds
